From PubChem BioAssay AID463205 (Broad Institute, 2010)
Out of some 2,400 compounds screened, about 20 (0.8%) were called active.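 Rule for the calls: active = AC50 no more than ten times the highest tested concentration, or full inhibition at every dose giving a flat fit (cut at about 30 µM in these data); inconclusive = flat fit with activity between 30% and 70%, or poor-quality invalid fit; inactive = AC50 more than ten times the top tested dose.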 The list shows a part of the results.

Assay: inhibitors of ADP-Glo detection reagents, dose response, artefact control for GSK-3a inhibitor project, biochemical, luminescence, cell-free, homogeneous (AID 463205);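 note: kinase-free counter-screen against the ADP-Glo detection reagents only; potency is for inhibitors that reduce the luminescence signal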
Conditions: 5 uM ADP

AC50, inactive:
CN1/C(=C/C(=S)NC(=O)C2CCC2)C(C)(C)c2ccccc21 > 30 µM
Cc1noc(C)c1COc1cccc(C(=O)OC(C)C(=O)Nc2c(C)n(C)n(-c3ccccc3)c2=O)c1 (configuration not stated) > 30 µM
Cc1nc2sc3c(c2c(=O)o1)CC(C)(C)OC3 > 30 µM
CC(=O)Oc1cc(O)c2c(=O)c(OC(C)=O)c(-c3ccc(OC(C)=O)c(OC(C)=O)c3)oc2c1 > 30 µM
OCc1nnn(-c2ccccc2)c1CO > 30 µM
CC1CN(c2nc(Nc3ccccc3F)nc(N)c2[N+](=O)[O-])CC(C)O1 (configuration not stated) > 30 µM
Cc1ccc(CSCCNC(=O)c2ccccc2)cc1 > 30 µM
COc1ccc(NC(=S)Nc2ccc3cn[nH]c3c2)cc1 > 30 µM
COc1ccc(/C=C/c2nc(N)nc(-c3ccccc3O)n2)cc1 > 30 µM
c1ccc2c(c1)ccc1nnc(-c3ccc4c(c3)OCO4)n12 > 30 µM
O=[N+]([O-])c1ccc(Nc2nc(NC3CCCCC3)nc(N3CCCC3)n2)cc1 > 30 µM
CN(C)Cc1c(C(=O)N/N=C/c2ccco2)nnn1-c1nonc1N > 30 µM
Clc1ccc(CNc2ccc3nnc(-c4ccccc4)n3n2)cc1 > 30 µM
Oc1ccc(-c2nnc(-c3ccc(O)cc3)nn2)cc1 > 30 µM
Oc1cccc(Nc2c3ccccc3nc3ccccc23)c1 > 30 µM
Cc1cc(C(C#N)c2cccc(Cl)c2)n2ncnc2n1 (configuration not stated) > 30 µM
COc1ccc(-c2cc(C(=O)N3CCN(c4ccccc4OC)CC3)no2)cc1 > 30 µM
COc1ccc(NC(=O)Nc2ccc(F)cc2)c(C)c1 > 30 µM
CNC(=O)CSc1nnc(-c2ccco2)n1-c1cccc(OC)c1 > 30 µM
O=C(Nc1ccc(Cl)cn1)c1cccc(S(=O)(=O)N2CCOCC2)c1 > 30 µM
CN1/C(=C\C=C(C#N)C#N)C(C)(C)c2ccccc21 > 30 µM
CNc1cc(N2CCCC2)ccc1[N+](=O)[O-] > 30 µM
COc1ccc(Br)cc1C(=O)Nc1cccc(NC(=O)c2ccco2)c1 > 30 µM
CC1(C)CC(=O)C(C2c3ccccc3Oc3ccccc32)C(=O)C1 > 30 µM
COc1ccc2c3c(cccc13)OC2=O > 30 µM
CN(C(=O)/C=C/c1ccc2c(c1)OCO2)c1ccccc1 > 30 µM
Cc1cc(=O)[nH]c2cc(O)ccc12 > 30 µM

A draw from above in order of number of heavy atoms, descending:
AC50, inactive:
O=[N+]([O-])c1ccc(Nc2nc(NC3CCCCC3)nc(N3CCCC3)n2)cc1 > 30 µM
CC1CN(c2nc(Nc3ccccc3F)nc(N)c2[N+](=O)[O-])CC(C)O1 (configuration not stated) > 30 µM
O=C(Nc1ccc(Cl)cn1)c1cccc(S(=O)(=O)N2CCOCC2)c1 > 30 µM
Clc1ccc(CNc2ccc3nnc(-c4ccccc4)n3n2)cc1 > 30 µM
CN1/C(=C\C=C(C#N)C#N)C(C)(C)c2ccccc21 > 30 µM
CNc1cc(N2CCCC2)ccc1[N+](=O)[O-] > 30 µM
OCc1nnn(-c2ccccc2)c1CO > 30 µM
